In the supplement of paper PMC10849652:
Some of the results follow. Residues, ends and D or L forms follow the SMILES beside them. *: point of attachment. Cbz = O=C(OCc1ccccc1)*

Sequences of proteins named here, by UniProt entry; tags and fusion partners are left off. A change or cut given only in a name is not applied to a line headed by its entry.
UniProt Q9H6R7: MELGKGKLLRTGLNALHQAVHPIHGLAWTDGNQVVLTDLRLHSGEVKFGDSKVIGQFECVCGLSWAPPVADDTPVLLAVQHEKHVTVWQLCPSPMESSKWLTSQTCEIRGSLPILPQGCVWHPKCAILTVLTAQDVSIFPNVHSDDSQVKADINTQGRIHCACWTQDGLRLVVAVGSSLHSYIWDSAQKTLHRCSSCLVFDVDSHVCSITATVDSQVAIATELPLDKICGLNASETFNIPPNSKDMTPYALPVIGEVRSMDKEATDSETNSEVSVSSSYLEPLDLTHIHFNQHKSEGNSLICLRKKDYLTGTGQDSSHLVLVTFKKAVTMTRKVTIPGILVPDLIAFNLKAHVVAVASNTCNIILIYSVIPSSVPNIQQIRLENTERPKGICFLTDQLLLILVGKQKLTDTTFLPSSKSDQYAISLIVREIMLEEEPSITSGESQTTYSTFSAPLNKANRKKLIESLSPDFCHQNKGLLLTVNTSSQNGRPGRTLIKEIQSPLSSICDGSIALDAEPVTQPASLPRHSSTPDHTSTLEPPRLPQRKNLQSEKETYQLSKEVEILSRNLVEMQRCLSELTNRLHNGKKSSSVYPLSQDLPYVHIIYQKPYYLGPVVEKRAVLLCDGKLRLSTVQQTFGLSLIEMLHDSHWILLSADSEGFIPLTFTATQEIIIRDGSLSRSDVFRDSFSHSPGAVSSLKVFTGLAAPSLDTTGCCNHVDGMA
UniProt Q3ZAQ7: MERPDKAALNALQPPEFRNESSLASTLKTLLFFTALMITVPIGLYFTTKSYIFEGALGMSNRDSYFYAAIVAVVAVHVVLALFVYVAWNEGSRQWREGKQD
UniProt O15213: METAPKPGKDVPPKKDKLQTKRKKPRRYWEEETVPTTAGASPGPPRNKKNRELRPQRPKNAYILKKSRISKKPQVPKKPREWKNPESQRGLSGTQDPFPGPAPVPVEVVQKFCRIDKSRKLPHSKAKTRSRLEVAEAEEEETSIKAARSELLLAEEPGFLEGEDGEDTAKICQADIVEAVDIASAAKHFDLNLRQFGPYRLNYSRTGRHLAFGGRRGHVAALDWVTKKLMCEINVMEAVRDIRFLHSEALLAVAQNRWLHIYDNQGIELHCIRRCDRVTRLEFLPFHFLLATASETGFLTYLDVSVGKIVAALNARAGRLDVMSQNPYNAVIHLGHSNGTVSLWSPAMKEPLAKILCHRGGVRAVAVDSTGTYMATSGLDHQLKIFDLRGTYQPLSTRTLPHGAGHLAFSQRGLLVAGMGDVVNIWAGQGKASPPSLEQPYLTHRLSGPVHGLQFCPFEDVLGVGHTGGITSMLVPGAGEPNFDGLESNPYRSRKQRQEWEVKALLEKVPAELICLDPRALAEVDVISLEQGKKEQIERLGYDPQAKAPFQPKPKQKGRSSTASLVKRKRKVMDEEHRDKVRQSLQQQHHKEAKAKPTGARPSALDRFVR
UniProt Q9H9C1: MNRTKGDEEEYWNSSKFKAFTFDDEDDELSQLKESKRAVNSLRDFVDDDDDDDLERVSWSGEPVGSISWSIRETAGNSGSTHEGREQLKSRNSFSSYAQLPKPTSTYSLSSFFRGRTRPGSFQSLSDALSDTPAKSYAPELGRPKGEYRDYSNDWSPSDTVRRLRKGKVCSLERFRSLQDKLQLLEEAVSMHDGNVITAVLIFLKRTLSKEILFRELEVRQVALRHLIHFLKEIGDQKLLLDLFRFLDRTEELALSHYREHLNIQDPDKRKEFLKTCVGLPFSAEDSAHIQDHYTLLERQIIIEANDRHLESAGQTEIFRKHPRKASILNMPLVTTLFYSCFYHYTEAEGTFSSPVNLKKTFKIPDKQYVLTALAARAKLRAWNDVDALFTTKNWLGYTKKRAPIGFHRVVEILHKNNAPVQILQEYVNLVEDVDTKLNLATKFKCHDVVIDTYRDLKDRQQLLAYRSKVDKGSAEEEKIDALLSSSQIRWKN
UniProt Q7Z5U6: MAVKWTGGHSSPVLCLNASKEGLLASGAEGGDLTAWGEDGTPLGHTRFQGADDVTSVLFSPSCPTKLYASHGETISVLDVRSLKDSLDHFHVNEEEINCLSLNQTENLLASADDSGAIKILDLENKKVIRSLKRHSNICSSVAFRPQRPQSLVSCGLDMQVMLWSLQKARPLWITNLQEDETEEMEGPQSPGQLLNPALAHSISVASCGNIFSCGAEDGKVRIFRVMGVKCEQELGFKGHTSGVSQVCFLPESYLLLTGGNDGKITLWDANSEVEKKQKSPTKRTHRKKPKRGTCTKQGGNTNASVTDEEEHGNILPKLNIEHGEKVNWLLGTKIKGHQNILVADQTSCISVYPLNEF
UniProt Q96S15: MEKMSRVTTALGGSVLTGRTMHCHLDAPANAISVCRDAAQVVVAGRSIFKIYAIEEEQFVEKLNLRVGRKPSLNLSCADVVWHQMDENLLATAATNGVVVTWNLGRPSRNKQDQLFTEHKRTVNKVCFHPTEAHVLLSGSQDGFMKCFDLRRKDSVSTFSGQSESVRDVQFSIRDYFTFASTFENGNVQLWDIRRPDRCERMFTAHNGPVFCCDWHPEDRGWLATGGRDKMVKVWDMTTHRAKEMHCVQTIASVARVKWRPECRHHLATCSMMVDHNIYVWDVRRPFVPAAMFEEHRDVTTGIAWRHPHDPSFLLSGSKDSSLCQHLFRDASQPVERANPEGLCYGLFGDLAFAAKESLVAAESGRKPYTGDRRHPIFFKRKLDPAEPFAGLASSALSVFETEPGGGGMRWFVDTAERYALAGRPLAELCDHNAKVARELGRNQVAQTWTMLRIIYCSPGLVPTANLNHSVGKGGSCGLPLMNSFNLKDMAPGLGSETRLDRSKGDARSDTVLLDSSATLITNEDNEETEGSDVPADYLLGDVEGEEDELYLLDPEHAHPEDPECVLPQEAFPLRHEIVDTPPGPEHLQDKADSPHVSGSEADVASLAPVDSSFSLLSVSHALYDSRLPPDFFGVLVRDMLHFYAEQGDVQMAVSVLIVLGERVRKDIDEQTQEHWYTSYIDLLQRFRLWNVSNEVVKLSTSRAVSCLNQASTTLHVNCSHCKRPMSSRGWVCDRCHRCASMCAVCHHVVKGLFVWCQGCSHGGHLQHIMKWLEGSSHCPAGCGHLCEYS
UniProt Q9BZH6: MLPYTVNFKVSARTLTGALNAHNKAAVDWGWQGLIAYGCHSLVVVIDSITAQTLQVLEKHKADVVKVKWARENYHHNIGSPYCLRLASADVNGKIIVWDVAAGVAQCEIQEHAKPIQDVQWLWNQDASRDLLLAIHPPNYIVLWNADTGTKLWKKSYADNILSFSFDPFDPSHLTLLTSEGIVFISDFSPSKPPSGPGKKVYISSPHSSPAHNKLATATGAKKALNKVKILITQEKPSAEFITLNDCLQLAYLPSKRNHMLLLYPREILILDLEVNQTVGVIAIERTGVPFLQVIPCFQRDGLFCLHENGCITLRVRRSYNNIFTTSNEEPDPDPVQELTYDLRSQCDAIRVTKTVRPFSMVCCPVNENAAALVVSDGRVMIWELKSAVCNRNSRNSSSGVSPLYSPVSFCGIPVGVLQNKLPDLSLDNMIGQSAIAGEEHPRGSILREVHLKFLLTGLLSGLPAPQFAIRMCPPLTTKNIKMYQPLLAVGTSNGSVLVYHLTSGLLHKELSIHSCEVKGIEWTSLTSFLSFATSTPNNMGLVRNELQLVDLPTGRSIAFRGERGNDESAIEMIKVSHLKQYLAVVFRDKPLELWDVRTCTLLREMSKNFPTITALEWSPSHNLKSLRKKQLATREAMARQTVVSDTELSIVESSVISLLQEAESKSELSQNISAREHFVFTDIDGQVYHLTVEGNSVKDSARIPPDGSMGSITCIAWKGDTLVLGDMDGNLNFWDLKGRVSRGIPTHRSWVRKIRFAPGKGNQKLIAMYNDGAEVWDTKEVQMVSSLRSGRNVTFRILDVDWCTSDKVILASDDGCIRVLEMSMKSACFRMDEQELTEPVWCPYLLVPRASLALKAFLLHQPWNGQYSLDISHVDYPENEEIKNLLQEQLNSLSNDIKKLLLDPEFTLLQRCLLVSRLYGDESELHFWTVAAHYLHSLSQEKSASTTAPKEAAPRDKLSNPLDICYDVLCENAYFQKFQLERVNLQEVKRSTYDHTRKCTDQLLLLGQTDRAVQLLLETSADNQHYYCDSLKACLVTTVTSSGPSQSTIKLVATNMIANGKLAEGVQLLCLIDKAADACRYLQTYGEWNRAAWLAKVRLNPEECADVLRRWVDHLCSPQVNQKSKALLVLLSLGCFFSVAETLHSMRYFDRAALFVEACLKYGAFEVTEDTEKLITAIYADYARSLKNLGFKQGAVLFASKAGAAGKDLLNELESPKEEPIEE

Tests used:
Test in all cases: log2 fold change, soluble protein after heating vs DMSO (PISA); higher = thermal stabilisation; K562 cells, 10 uM, 30 min; active = over 0.2 and 3.5 SD of the protein, either way, in both replicates (recomputed)
erlotinib = compound: C#Cc1cccc(Nc2ncnc3cc(OCCOC)c(OCCOC)cc23)c1 [erlotinib]
Procedure, shortened: (§1)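 K562 cells (2×10^6 cells/mL) were treated with 10 μM compound for 30 min, and aliquots were heated for 3 min over 48°C-58°C. Pooled aliquots were extracted in PBS with 0.5% NP-40 at 4°C, and the supernatant after 21,000xg for 90 min was measured by TMTpro 16plex LC-MS/MS with channel sums equalised. Reported thermal stability, relative to control samples and from duplicates, is a log2 fold change.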

[1] = compound: C/C(=N\NC(=O)C1=CC(=CC=C1)S(=O)(=O)N2CCOCC2)/C3=C(C=CC(=C3)Cl)O
Procedure, shortened: as §1

[2] = compound: C1=CC(=C(C=C1Cl)C2=NC3=NC=CN=C3C(=N2)NC4=CC=NC=C4)F
Procedure, shortened: as §1

[3] = compound: C1=CC(=CC=C1C2=NC3=C(N2)C=C(C=C3)C(=O)N)OC4=CC=C(C=C4)Cl
Procedure, shortened: as §1

[4] = compound: C1=CC2=C(C=CC(=C2)/C=C\3/C(=O)NC(=NCC4=CC=CS4)S3)N=C1
Procedure, shortened: as §1

[5] = compound: C1=CC2=NC=CN=C2C=C1/C=C/3\C(=O)NC(=O)S3
Procedure, shortened: as §1

[6] = compound: C1=CC=C(C=C1)C2=NC(=C(N2)C3=CC=NC=C3)C4=CC(=C(C=C4)Cl)O
Procedure, shortened: as §1

[7] = compound: C1=CC=C2C(=C1)C3=NNC4=CC=CC(=C43)C2=O
Procedure, shortened: as §1

[8] = compound: C1CCN(C1)C(=O)NC2=CC=CC(=C2)NC3=NC=C(C(=N3)NCCC4=CN=CN4)Br
Procedure, shortened: as §1

[9] = compound: C1CN(CCC1(CC2=CC=C(C=C2)Cl)N)C3=NC=NC4=C3C=CN4
Procedure, shortened: as §1

IRAK-1-4 Inhibitor I = compound: C1COCCN1CCN2C3=CC=CC=C3N=C2NC(=O)C4=CC(=CC=C4)[N+](=O)[O-] [IRAK-1-4 Inhibitor I]
Procedure, shortened: as §1

ibrutinib = compound: C=CC(=O)N1CCC[C@@H](n2nc(-c3ccc(Oc4ccccc4)cc3)c3c(N)ncnc32)C1 [ibrutinib]
Procedure, shortened: as §1

[10] = compound: CC(=O)c1cnc2ccc(-c3cc(Cl)c(O)c(Cl)c3)nc2c1N[C@H]1CC[C@H](CN(C)C)CC1
Procedure, shortened: as §1

ralimetinib = compound: CC(C)(C)Cn1c(N)nc2ccc(-c3[nH]c(C(C)(C)C)nc3-c3ccc(F)cc3)nc21 [ralimetinib]
Procedure, shortened: as §1

[11] = compound: CC(C)(O)CC(=O)NCCn1ccc2ncnc(Nc3ccc(Oc4cccc(C(F)(F)F)c4)c(Cl)c3)c21
Procedure, shortened: as §1

[12] = compound: CC(C)C1=C2N=C(C=C(N2N=C1)NCC3=CC=CC=C3)NCCCCCCN
Procedure, shortened: as §1

[13] = compound: CC(C)C[C@@H](C=O)NC(=O)[C@H](CC(C)C)NC(=O)[C@H](CC(C)C)NC(=O)OCc1ccccc1
Procedure, shortened: as §1

pinometostat = compound: CC(C)N(C[C@H]1O[C@@H](n2cnc3c(N)ncnc32)[C@H](O)[C@@H]1O)[C@H]1C[C@@H](CCc2nc3cc(C(C)(C)C)ccc3[nH]2)C1 [pinometostat]
Procedure, shortened: as §1

[14] = compound: CC1=C(C2=C(C=C1)C(=O)C3=CC=CC=C3N2CCCN)C
Procedure, shortened: as §1

[15] = compound: CC1=C(C(CC(=O)N1)C2=CC=C(C=C2)C(F)(F)F)C(=O)NC3=C(C=C4C(=C3)C=NN4)F
Procedure, shortened: as §1

Row | Target | log2 fold change (erlotinib) | log2 fold change [1] | log2 fold change [2] | log2 fold change [3] | log2 fold change [4] | log2 fold change [5] | log2 fold change [6] | log2 fold change [7] | log2 fold change [8] | log2 fold change [9] | log2 fold change (IRAK-1-4 Inhibitor I) | log2 fold change (ibrutinib) | log2 fold change [10] | log2 fold change (ralimetinib) | log2 fold change [11] | log2 fold change [12] | log2 fold change [13] | log2 fold change (pinometostat) | log2 fold change [14] | log2 fold change [15]
1 | WDCP (UniProt Q9H6R7) | inactive: 0.083 | inactive: -0.003 | inactive: 0.058 | inactive: 0.065 | inactive: -0.015 | inactive: 0.134 | inactive: -0.022 | inactive: -0.068 | inactive: -0.012 | inactive: -0.011 | inactive: -0.01 | inactive: -0.038 | inactive: 0.078 | inactive: -0.006 | inactive: -0.053 | inactive: 0.032 | inactive: 0.014 | inactive: 0.076 | inactive: 0.023 | 
2 | VMA21 isoform 2 (UniProt Q3ZAQ7) | inactive: 0.037 | inactive: 0.117 | inactive: 0.051 | inactive: 0.114 | inactive: -0.174 | inactive: 0.061 |  | inactive: 0.043 | inactive: 0.014 | inactive: 0.136 | inactive: 0.03 | inactive: 0.057 | inactive: 0.01 |  | inactive: 0.082 | inactive: 0.155 |  | inactive: -0.035 | inactive: -0.049 | inactive: 0.002
3 | WDR46 (UniProt O15213) | inactive: -0.209 | inactive: -0.231 | active: -0.816 | inactive: 0.008 | inactive: -0.154 | inactive: 0.065 | inactive: -0.055 | inactive: 0.052 | inactive: 0.057 | inactive: -0.087 | inactive: -0.159 | inactive: 0.099 | inactive: 0.15 | inactive: 0.175 | inactive: 0.066 | inactive: 0.192 | inactive: 0.154 | inactive: 0.242 | inactive: -0.382 | 
4 | VEGFA (UniProt H0YBI8) | inactive: 0.044 | inactive: 0.063 |  | inactive: -0.03 | inactive: -0.011 | inactive: 0.008 | inactive: 0.003 | inactive: -0.173 | inactive: 0.019 | inactive: 0.056 | inactive: -0.178 | inactive: 0.07 | inactive: -0.338 | inactive: 0.053 |  | inactive: 0.183 | inactive: -0.056 | inactive: 0.145 | inactive: -0.258 | inactive: -0.222
5 | VKORC1 (UniProt Q9BQB6) | inactive: 0.048 | inactive: -0.048 |  | inactive: -0.019 | inactive: 0.175 | inactive: 0.113 | inactive: 0.044 | inactive: 0.151 | inactive: -0.049 | inactive: 0.005 | inactive: -0.056 | inactive: 0.024 | inactive: -0.033 | inactive: -0.052 |  | inactive: -0.306 | inactive: -0.029 | inactive: 0.092 | inactive: 0.049 | 
6 | VIPAS39 (UniProt Q9H9C1) | inactive: 0.04 | inactive: 0.256 |  | inactive: -0.062 | inactive: -0.038 | inactive: 0.027 |  | inactive: 0.098 | inactive: -0.208 | inactive: -0.144 |  | inactive: -0.122 | inactive: 0.032 |  |  | inactive: -0.262 |  |  | inactive: 0.01 | inactive: 0.006
7 | WDR53 (UniProt Q7Z5U6) | inactive: -0.006 | inactive: 0.002 |  | inactive: -0.051 | inactive: -0.066 | inactive: 0.061 | inactive: 0.075 | inactive: 0.008 | inactive: 0.032 | inactive: -0.035 | inactive: 0.075 | inactive: 0.007 | inactive: 0.028 | inactive: -0.057 |  | inactive: 0.139 | inactive: 0.025 | inactive: -0.047 | inactive: 0.108 | 
8 | WDR24 (UniProt Q96S15) | inactive: 0.003 | inactive: 0.026 | inactive: 0.026 | inactive: -0.08 | inactive: -0.14 |  | inactive: -0.142 | inactive: -0.09 | inactive: -0.001 | inactive: -0.268 |  |  | inactive: -0.024 | inactive: 0.008 | inactive: 0.177 | inactive: 0.026 | inactive: -0.059 |  | inactive: 0.196 | 
9 | WDR11 (UniProt Q9BZH6) | inactive: 0.103 | inactive: -0.081 | inactive: 0.145 | inactive: -0.004 | inactive: 0.115 | inactive: 0.067 | inactive: -0.168 | inactive: 0.005 | inactive: 0.091 | inactive: 0.023 | inactive: 0.009 | inactive: -0.112 | inactive: -0.01 | inactive: -0.068 | inactive: -0.018 | inactive: -0.056 | inactive: -0.047 | inactive: 0 | inactive: 0.065 | 
